Assay results: publication PMC9934381
These are yes or no findings as the source states them, for the method shown. In cells and extracts the contact can be indirect. Some binding calls cover weakened binding; strength is not graded here.

Target: Stimulator of interferon genes (STING), Q86WV6
Test: co-IP
Conditions: remark: other sources report otherwise

B1: TANK-binding kinase 1 (TBK1), Q9UHD2 1-729 (protein)
chain: MQSTSNHLWLLSDILGQGATANVFRGRHKKTGDLFAIKVFNNISFLRPVDVQMREFEVLKKLNHKNIVKLFAIEEETTTRHKVLIMEFCPCGSLYTVLEEPSNAYGLPESEFLIVLRDVVGGMNHLRENGIVHRDIKPGNIMRVIGEDGQSVYKLTDFGAARELEDDEQFVSLYGTEEYLHPDMYERAVLRKDHQKKYGATVDLWSIGVTFYHAATGSLPFRPFEGPRRNKEVMYKIITGKPSGAISGVQKAENGPIDWSGDMPVSCSLSRGLQVLLTPVLANILEADQEKCWGFDQFFAETSDILHRMVIHVFSLQQMTAHKIYIHSYNTATIFHELVYKQTKIISSNQELIYEGRRLVLEPGRLAQHFPKTTEENPIFVVSREPLNTIGLIYEKISLPKVHPRYDLDGDASMAKAITGVVCYACRIASTLLLYQELMRKGIRWLIELIKDDYNETVHKKTEVVITLDFCIRNIEKTVKVYEKLMKINLEAAELGEISDIHTKLLRLSSSQGTIETSLQDIDSRLSPGGSLADAWAHQEGTHPKDRNVEKLQVLLNCMTEIYYQFKKDKAERRLAYNEEQIHKFDKQKLYYHATKAMTHFTDECVKKYEAFLNKSEEWIRKMLHLRKQLLSLTNQCFDIEEEVSKYQEYTNELQETLPQKMFTASSGIKHTMTPIYPSSNTLVEMTLGMKKLKEEMEGVVKELAENNHILERFGSLTMDGGLRNVDCL
  binding: binds
